From article PMC11827615
The exact form of at least one protein or probe is not confirmed. Negatives hold for the conditions tested. A weaker result is weaker than the reference pair of the same experiment.

Tested on: His-TaSSRP1 (Triticum aestivum)
Assay: EMSA
Settings: EMSA: 1 ng biotin probe, 2 ug protein, 20 uL 1x binding buffer, 2.5% glycerol, 2 mM EDTA, 5 mM MgCl2, 50 mM KCl, 0.05% NP-40, poly(dI-dC) (printed '50 n'), recombinant protein, protein details: His (pET-32a, N-terminal vector tags), label: 5' biotin (both oligos listed biotinylated)

Sequence | binding result | binding result (unlabeled Cold-IME used as competitor (10-, 50-, 100-fold))
CCCGACTCGATGCGGATTCGGGATCCTCTTGCTGCACGG (double strand) [IME-right] | no binding | –
CGCATACACATGTGTTCTTCTACCTTCTCCATTCTCTCT (double strand) [IME-left] | no binding | –
TTTCTCTCTTACTCCAGATATGTCCGTTCTTCTCGTGTC (double strand) [IME-M4] | binds more weakly | –
TTTCTCTCTTACTCCAGATCGGTCCGTTCTTCTCGTGTC (double strand) [IME-M5] | binds more weakly | –
TTTCTCTCTTACTCCAGATCTGGCCGTTCTTCTCGTGTC (double strand) [IME-M7] | binds more weakly | –
TTTCTCTCTTACTCCAGATCTGTCCGTTCTTCTCGTGTC (double strand) [IME] | – | binds
TTTCTCTCTTACTCCAGCTCTGTCCGTTCTTCTCGTGTC (double strand) [IME-M2] | binds more weakly | –
